Test results reported in PubChem BioAssay AID493014 (National Center for Advancing Translational Sciences (NCATS), 2011).
The whole screen tested about 340,000 compounds, of which about 170 (0.05%) were called active. Inconclusive results, whose numbers are uncertain, are shown with a selection of clear calls. Calls come from the whole dose curve; as a rule, active = well fitted inhibition curve with a large enough effect in the signal ratio, with a control signal flat (not every such curve was filed as active); inconclusive = small, poorly fitted or top-dose-only effect, or effect the other way, or a change in a side signal; inactive = flat fitted curve, though single readings scatter; the % refers to the signal ratio. Potencies beside an inconclusive call are fits to weak or partial responses and may not hold up.
Potency is the fitted concentration of half-maximal effect.

Experiment: qHTS Assay to Find Inhibitors of Chronic Active B-Cell Receptor Signaling;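 for activity change, negative = inhibition: plate controls were basal doxycycline-induced cells for no effect and cells given 10 µM MG132 for full effect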
Conditions: ABC-DLBCL IkBa-CBG/CBR reporter, luminescence ratio (green luciferase fused to IkBa over red control in TMD8 lymphoma cells), 4 h; activity change, negative = inhibition: at 46.1 µM (top of the series)
In short: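 Doxycycline induced both beetle luciferases in TMD8 lymphoma cells; IKK-driven degradation limits the IkappaBalpha-fused green signal, while red luminescence normalises for cell number and nonspecific effects. Compounds tested up to 46 uM, 4 hrs.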
In the case of `CNc1nc(N)c([N+](=O)[O-])c(Nc2cccc(Cl)c2)n1`, the activity change, negative = inhibition is reported as inconclusive: -1.16%. With `O=C(CCSc1nc(-c2ccco2)cc(C(F)(F)F)n1)NCc1cccs1` the activity change, negative = inhibition was inconclusive: 29.2%. For `O=C(CCN1C(=O)COc2ccccc21)NCCCN1CCN(c2ccccc2F)CC1`, the activity change, negative = inhibition was “inactive”. In the case of `Cc1ccc(-n2c(C)csc2=N)cc1`, the Potency is reported as inconclusive: 23.1 µM [rising, single point]. For `CC(C)CNC(=O)/C=C/c1cccs1`, the Potency was inconclusive: 25.9 µM [falling, partial curve]. With `Cc1ccc(S(=O)(=O)N(C)C)cc1NC(=O)CN1c2cccc3cccc(c23)S1(=O)=O` the activity change, negative = inhibition was “inactive”. With `COC(=O)c1sccc1NC(=S)N1CC(C)CC(C)C1` (configuration not stated) the Potency was inconclusive: 8.2 µM [rising, partial curve, poor fit]. For `Cc1ccc(-c2csc3ncnc(N4CCN(c5ccccc5O)CC4)c23)cc1`, the activity change, negative = inhibition was inconclusive: -0.11%. In the case of `Cc1nn(-c2nc3ccccc3s2)c(N)c1-c1ccc(Cl)cc1`, the activity change, negative = inhibition is reported as inconclusive: 18.6%. For `O=C1N[C@@H](Cc2ccccc2)C(=O)N2[C@H]1C[C@]1(Br)c3ccccc3N(S(=O)(=O)c3ccccc3)[C@H]21`, the activity change, negative = inhibition was inconclusive: 6.11%. With `Clc1ccc(OCc2nc(-c3ccncc3)no2)c(Br)c1` the activity change, negative = inhibition was inconclusive: 7.18%. With `COc1nc(-c2ccccc2)cc(-c2ccc(OC)c(OC)c2)n1` the Potency was inconclusive: 11.6 µM [falling, partial curve, poor fit]. For `COCCOc1ccc(C(F)(F)F)cc1NC(=O)c1ccc(C)cc1`, the activity change, negative = inhibition was inconclusive: 10%. For `CCOc1ccc(-n2c(C)nc(O)c2N=Nc2ccccc2)cc1`, the activity change, negative = inhibition was inconclusive: -7.91%. In the case of `O=C(O)/C=C/c1ccc(OCc2cccc(F)c2)cc1`, the Potency is reported as inconclusive: 0.631 µM [falling, partial curve, poor fit]. With `CCCc1ccc2oc(C(=O)N(Cc3ccncc3)CC3CCCO3)c(C)c2c1` (configuration not stated) the activity change, negative = inhibition was inconclusive: -6.42%. In the case of `CCCC(CCC)=NNC(=O)c1ccccc1F`, the activity change, negative = inhibition is reported as inconclusive: 230%. In the case of `O=C(Nc1ccncc1)c1ccc(Cl)c(S(=O)(=O)N2CCc3ccccc32)c1`, the Potency is reported as inconclusive: 14.6 µM [falling, partial curve]. With `Cc1cccn2c(=O)c(/C=C(\C#N)C(=O)NCc3ccco3)c(N3CCOCC3)nc12` the activity change, negative = inhibition was inconclusive: 8.07%. For `Cn1c(SCC(=O)c2ccc3c(c2)Cc2ccccc2-3)nnc1-c1ccccc1`, the Potency was inconclusive: 7.08 µM [rising, partial curve, poor fit]. In the case of `COc1ccc(C2=NOC3(CC(=O)N(c4ccc(F)cc4)C3=O)C2)cc1` (configuration not stated), the activity change, negative = inhibition is reported as inconclusive: -11.2%. For `C#CCOCCOCCOCCNc1nc(N2CCN(C(=O)[C@H]([C@@H](C)CC)n3cc([C@@H](N)Cc4ccc(O)cc4)nn3)CC2)nc(N2CCN(C(=O)[C@H](CCCCN)n3cc([C@@H](N)CO)nn3)CC2)n1`, the activity change, negative = inhibition was inconclusive: 4.67%. With `COc1ccc(-c2csc(NC(=O)Cc3cc(OC)c(OC)c(OC)c3)n2)cc1OC` the Potency was inconclusive: 35.5 µM [falling, single point]. With `CN(C)/C=C/C(=O)c1cnc(-c2ccccc2)s1` the Potency was inconclusive: 28.2 µM [falling, single point]. With `CC(C)c1[nH]nc2c1C(C1C=CCCC1)C(C#N)=C(N)O2` (configuration not stated) the Potency was inconclusive: 5.01 µM [falling, partial curve]. In the case of `CCCn1c(N)c(C(=O)COC(=O)c2cccc(S(=O)(=O)N3CCOCC3)c2)c(=O)[nH]c1=O`, the activity change, negative = inhibition is reported as inconclusive: -1.56%. In the case of `O=C(CNC(=O)c1ccco1)N=Nc1c(O)[nH]c2ccc([N+](=O)[O-])cc12`, the activity change, negative = inhibition is reported as inconclusive: 1.48%. For `CN(/N=C/c1cc(Cl)ccc1O)C1=NS(=O)(=O)c2ccccc21`, the activity change, negative = inhibition was inconclusive: 0.462%. In the case of `COC(=O)[C@H]1CN(C(=O)c2ccccc2)C(=O)N1`, the activity change, negative = inhibition is reported as inconclusive: 26.1%. For `COc1ccc2ccccc2c1CN1CCSCC1`, the activity change, negative = inhibition was “inactive”. For `O=C(CN1CCN(S(=O)(=O)c2ccc(F)cc2)CC1)Nc1ccc(Cl)cn1`, the activity change, negative = inhibition was “inactive”. For `CCCCNc1ncnc2c1cnn2Cc1ccc(Cl)cc1`, the activity change, negative = inhibition was inconclusive: -1.99%. For `COc1ccc(NC(=O)/C=C/c2ccc(F)cc2)cn1`, the activity change, negative = inhibition was inconclusive: -8.64%. With `Cn1c(-c2csc(-c3ccccc3)n2)n[nH]c1=S` the Potency was inconclusive: 11.2 µM [falling, partial curve]. With `O=S(=O)(c1ccc(NC(=S)N/N=C/c2c3ccccc3cc3ccccc23)cc1)N1CCOCC1` the activity change, negative = inhibition was inconclusive: 4.8%. For `O=C(/C=C/c1cccc([N+](=O)[O-])c1)N1CCN(c2ccccc2F)CC1`, the activity change, negative = inhibition was “inactive”. For `CN(C)C(=O)c1ccc(NC(=O)c2ccc(-c3ccc(Cl)cc3)o2)cc1`, the activity change, negative = inhibition was inconclusive: 1.19%. With `O=C(OCn1ncc(Br)c(Br)c1=O)c1c(F)cccc1F` the Potency was inconclusive: 2.59 µM [rising, full curve, poor fit]. For `Cc1ccsc1C(=O)N1CCCC(C(=O)c2cc(F)ccc2F)C1` (configuration not stated), the activity change, negative = inhibition was inconclusive: 3.88%. In the case of `FC(F)(F)c1ccc(N2CCN(c3cc(-c4ccccc4)nc4ncnn34)CC2)nc1`, the activity change, negative = inhibition is reported as inconclusive: -17.9%. For `CCOc1cc(/C=C(/C#N)c2nc3ccccc3[nH]2)ccc1Oc1ccc([N+](=O)[O-])cn1`, the activity change, negative = inhibition was inconclusive: 6.05%. With `COc1cccc(NC(=O)C2CCC(CNS(=O)(=O)c3cccc4cccnc34)CC2)c1` (configuration not stated) the Potency was inconclusive: 35.5 µM [falling, partial curve, poor fit]. In the case of `O=C1C(=C2SCCCS2)CC/C1=C\c1ccc(F)cc1`, the Potency is reported as inconclusive: 8.91 µM [falling, partial curve]. In the case of `O=C(/C=C/c1ccc(Cl)cc1)NCc1cccs1`, the Potency is reported as inconclusive: 16.4 µM [falling, partial curve, poor fit]. In the case of `CC1CCN(C(=O)CNC(=O)c2cccc(OC(F)F)c2)CC1`, the Potency is reported as inconclusive: 10 µM [falling, partial curve]. With `Cc1ccc(/C=N/NC(=S)N2CCOCC2)cc1` the activity change, negative = inhibition was inconclusive: 6.29%. In the case of `COc1cccc(Nc2nc(N)nc(CCl)n2)c1`, the activity change, negative = inhibition is reported as inconclusive: 3.16%. With `Cc1ccc(/C=C/c2nnc(-c3ccccc3)o2)cc1` the Potency was inconclusive: 7.08 µM [falling, partial curve, poor fit]. With `Cc1ccccc1-n1c(SCC(=O)N2CCC(C(=O)O)CC2)nnc1-c1ccncc1` the activity change, negative = inhibition was inconclusive: 5.85%. For `CC(=O)Nc1ccc(Nc2cc(C(C)C)nc3c(-c4ccccc4)c(C)nn23)cc1`, the activity change, negative = inhibition was inconclusive: 24.5%. With `O=C(O)c1ccc(Nc2ncc([N+](=O)[O-])cc2[N+](=O)[O-])cc1` the activity change, negative = inhibition was inconclusive: -15.7%. For `C=CCn1c(SCC(=O)Nc2ccc(C)cc2C)nnc1-c1cccnc1`, the activity change, negative = inhibition was inconclusive: 14%. In the case of `CCCCCN(C(=O)CN1CCC(Cc2ccccc2)CC1)c1c(N)n(CCCC)c(=O)[nH]c1=O`, the activity change, negative = inhibition is reported as “inactive”. With `COc1cc2nc(CN(C)Cc3nc4ccccc4c(=O)[nH]3)[nH]c(=O)c2cc1OC` the activity change, negative = inhibition was “inactive”. With `COc1ccccc1N1CCN(C(c2cccs2)C(C)NC(=O)c2cccnc2)CC1` (configuration not stated) the activity change, negative = inhibition was inconclusive: -5.32%. With `CC1=NN(c2ccccc2)C(=O)/C1=C\C=C\c1ccccc1` the activity change, negative = inhibition was inconclusive: -5.62%. With `N=c1n(Cc2ccc(Cl)cc2)c2ccccc2n1CC(O)c1ccco1` (configuration not stated) the Potency was inconclusive: 22.4 µM [falling, single point]. In the case of `Cc1ccc2nc(NNC(=O)c3ccc4c(c3)OCCO4)sc2c1`, the activity change, negative = inhibition is reported as “inactive”. For `Cc1cccc(NC(=O)C2NC(=O)CC2c2ccccc2)c1C` (configuration not stated), the activity change, negative = inhibition was inconclusive: -15.5%. With `CCOC(=O)c1cn[nH]c1NC(=S)Nc1ccccc1` the Potency was inconclusive: 0.794 µM [rising, full curve]. In the case of `O=C(NCCCOc1cccc(CN2CCCCC2)c1)c1ccc(Cl)c(Cl)c1`, the activity change, negative = inhibition is reported as inconclusive: -4.95%. With `CC1CCCCN1C(=O)CSc1nnc(Cc2ccccc2)n1C` (configuration not stated) the activity change, negative = inhibition was inconclusive: 7.69%. For `Cc1cccc(NC(=S)NCCc2ccccc2)n1`, the activity change, negative = inhibition was inconclusive: -6.17%. In the case of `CCOc1ccc2[nH]c(=O)c(CN(CC3COCCO3)C(=O)c3ccco3)cc2c1` (configuration not stated), the activity change, negative = inhibition is reported as inconclusive: 0.668%. With `Clc1ccccc1-c1nc2ccccc2c2nncn12` the activity change, negative = inhibition was inconclusive: 10.7%. With `CCCNC(=O)CCn1c(-c2ccc(C)cc2)cc(C(=O)OCC)c1C` the activity change, negative = inhibition was “inactive”. With `Cc1ccc(S(=O)(=O)N(C)CCCC(=O)n2nc(C)cc2C)cc1` the activity change, negative = inhibition was inconclusive: 3.94%. For `O=C(O)CCc1nc(-c2cccs2)no1`, the Potency was inconclusive: 10 µM [rising, partial curve, poor fit]. In the case of `Nc1nc(CN2CCN(c3ccccc3F)CC2)nc(Nc2ccccc2)n1`, the activity change, negative = inhibition is reported as “inactive”. With `CC(=O)NC12CC3CC(C1)CC(C(=O)N1CCN(S(=O)(=O)c4ccc(C(C)C)cc4)CC1)(C3)C2` the activity change, negative = inhibition was “inactive”. For `O=C(Nc1cccc2ccccc12)C(=O)C1C(=O)Nc2ccccc21` (configuration not stated), the Potency was inconclusive: 12.6 µM [falling, partial curve, poor fit]. In the case of `c1ccc(C2=Nc3ccccc3OC2)cc1`, the activity change, negative = inhibition is reported as inconclusive: -0.976%. With `O=C(NCCc1ccc(F)cc1)C(=O)NCC1CCCN1S(=O)(=O)c1ccccc1` (configuration not stated) the Potency was inconclusive: 29.1 µM [falling, single point]. With `CCCCOC(=O)Nc1cc(OC)c(Cl)cc1OC` the activity change, negative = inhibition was inconclusive: -0.0746%. In the case of `CCO[C@@H]1OC(C(=O)Nc2ccccc2)=C[C@H](c2coc3ccccc3c2=O)[C@H]1CCCO`, the activity change, negative = inhibition is reported as inconclusive: 5.22%. For `Cc1ccccc1OCC(=O)Nc1ccc2c(c1)COC2=O`, the Potency was inconclusive: 25.9 µM [falling, single point]. With `COc1ccccc1C(CCNCc1ccc(N(C)C)cc1)c1ccc(OC(C)C)cc1` (configuration not stated) the Potency was inconclusive: 25.1 µM [falling, partial curve, poor fit].
